Source: PMC10891344
No constants are given. Whether binding was seen depends on the method and setting. In cells and extracts the contact can be indirect. Some results given as binding are weak or reduced against the parent protein; the word gives no strength.

Amino acid sequences for entries named in this document (tags omitted).
UniProt O94992: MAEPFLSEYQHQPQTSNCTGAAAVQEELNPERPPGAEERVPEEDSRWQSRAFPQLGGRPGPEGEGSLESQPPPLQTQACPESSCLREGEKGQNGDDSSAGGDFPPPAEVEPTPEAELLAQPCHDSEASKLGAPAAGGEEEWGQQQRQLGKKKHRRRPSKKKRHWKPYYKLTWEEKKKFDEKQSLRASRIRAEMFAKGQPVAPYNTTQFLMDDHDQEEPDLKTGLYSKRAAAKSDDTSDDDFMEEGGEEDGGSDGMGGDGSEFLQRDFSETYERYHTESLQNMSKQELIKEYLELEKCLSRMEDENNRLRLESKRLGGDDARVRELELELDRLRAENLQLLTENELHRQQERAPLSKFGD

Biological target: HEXIM1, endogenous in HeLa (human (endogenous in HeLa)) (UniProt O94992)
Assay: co-IP; P-TEFb release assay: 7SK snRNP from HeLa whole cell extract immobilised with HEXIM1 antibody on Protein G Dynabeads; RNAse A or actin added as release agent; blot with Cdk9 and HEXIM1 antibodies

binding: binds
Substance: Cdk9, endogenous in HeLa (P-TEFb in 7SK snRNP) (from UniProt P50750 1-372) (enzyme)
